From publication PMC10266255
No constants are given. Whether binding was seen depends on the method and setting. Binding seen in cells or lysates may run through a third protein. Some results given as binding are weak or reduced against the parent protein; the word gives no strength. Sequences can lack the tags named with a protein.

Sequences of proteins named here, by UniProt entry; tags and fusion partners are left off.
UniProt O60566: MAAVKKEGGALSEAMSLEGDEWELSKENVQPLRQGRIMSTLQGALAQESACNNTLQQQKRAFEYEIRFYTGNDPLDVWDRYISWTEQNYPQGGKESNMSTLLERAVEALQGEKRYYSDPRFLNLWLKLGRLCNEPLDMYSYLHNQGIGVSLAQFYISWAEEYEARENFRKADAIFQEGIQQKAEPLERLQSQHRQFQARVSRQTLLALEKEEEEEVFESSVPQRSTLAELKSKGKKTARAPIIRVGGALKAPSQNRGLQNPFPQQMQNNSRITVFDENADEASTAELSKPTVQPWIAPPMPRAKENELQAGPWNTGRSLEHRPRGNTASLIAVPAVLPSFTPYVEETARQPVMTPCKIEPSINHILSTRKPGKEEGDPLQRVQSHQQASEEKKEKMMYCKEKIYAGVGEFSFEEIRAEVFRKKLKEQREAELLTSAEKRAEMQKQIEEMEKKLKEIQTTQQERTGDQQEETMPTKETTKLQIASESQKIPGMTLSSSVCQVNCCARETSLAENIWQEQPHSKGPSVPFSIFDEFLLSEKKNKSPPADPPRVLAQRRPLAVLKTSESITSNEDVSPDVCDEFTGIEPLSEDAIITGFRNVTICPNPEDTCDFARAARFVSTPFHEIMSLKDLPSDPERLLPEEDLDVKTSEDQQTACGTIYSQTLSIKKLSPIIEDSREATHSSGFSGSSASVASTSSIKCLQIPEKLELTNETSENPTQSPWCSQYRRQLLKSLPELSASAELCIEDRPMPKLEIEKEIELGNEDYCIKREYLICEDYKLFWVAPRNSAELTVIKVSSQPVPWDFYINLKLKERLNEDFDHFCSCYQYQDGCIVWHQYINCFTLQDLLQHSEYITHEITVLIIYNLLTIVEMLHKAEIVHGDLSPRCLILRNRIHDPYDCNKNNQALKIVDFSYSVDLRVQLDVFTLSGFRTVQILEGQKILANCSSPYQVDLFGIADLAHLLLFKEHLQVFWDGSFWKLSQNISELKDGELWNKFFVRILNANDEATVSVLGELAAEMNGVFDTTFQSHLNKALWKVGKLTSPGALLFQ
UniProt O43684: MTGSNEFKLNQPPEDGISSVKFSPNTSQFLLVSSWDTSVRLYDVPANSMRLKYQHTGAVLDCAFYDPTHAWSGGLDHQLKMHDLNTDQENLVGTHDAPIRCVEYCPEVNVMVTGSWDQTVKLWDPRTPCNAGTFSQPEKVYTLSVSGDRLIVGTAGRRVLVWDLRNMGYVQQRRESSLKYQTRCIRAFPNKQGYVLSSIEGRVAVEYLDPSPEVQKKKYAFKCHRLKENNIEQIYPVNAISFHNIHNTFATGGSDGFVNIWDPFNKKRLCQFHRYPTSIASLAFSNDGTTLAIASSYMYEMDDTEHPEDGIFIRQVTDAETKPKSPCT

B1: proline-rich acidic protein 1 (PRAP1) (protein, UniProt Q96NZ9 21-151)
chain: VPAPKVPIKMQVKHWPSEQDPEKAWGARVVEPPEKDDQLVVLFPVQKPKLLTTEEKPRGQGRGPILPGTKAWMETEDTLGHVLSPEPDHDSLYHPPPEEDQGEERPRLWVMPNHQVLLGPEEDQDHIYHPQ
B2: EGFP-PRAP1 (protein, UniProt Q96NZ9 21-151)
chain: VPAPKVPIKMQVKHWPSEQDPEKAWGARVVEPPEKDDQLVVLFPVQKPKLLTTEEKPRGQGRGPILPGTKAWMETEDTLGHVLSPEPDHDSLYHPPPEEDQGEERPRLWVMPNHQVLLGPEEDQDHIYHPQ

Target: budding uninhibited by benzimidazole-related 1 (BUBR1) (human (endogenous in HCT-116)) (UniProt O60566)
Assay: co-IP; BUBR1 antibody, Protein A agarose beads, RIPA lysate of colcemid-challenged HCT-116 cells (with or without exogenous PRAP1) and HCT-116/DDP cells (siNC or siPRAP1); primary antibody at 4 C overnight; western blot

Row | Molecule | binding
1 | budding uninhibited by benzimidazoles 3 (Bub3) (from UniProt O43684 1-328) | binds
2 | B1 | no binding
3 | B2 | no binding
